# In patent publication US5491172A, “N-acyl sulfamic acid esters (or thioesters), N-acyl sulfonamides, and N-sulfonyl carbamic acid esters (or thioesters) as hypercholesterolemic agents” (Warner-Lambert Company, priority 1994, dated 1996):
# For at least one compound, name, drawing or mass did not settle the structure.
# Target: acyl-CoA:cholesterol acyltransferase (ACAT)
# Experiment: in vitro ACAT inhibition (LAI): radiolabeled cholesterol oleate formed from radiolabeled oleic acid in rat liver microsomes
# Format: biochemical
# Conditions: concentration required to inhibit enzyme activity by 50%
# Experimental: The ability of representative compounds of the present invention to inhibit ACAT was measured using an in vitro test more fully described in Field FJ, Salone RG, Biochemica et Biophysica, 1982;712:557-570. The test assesses the ability of a test compound to inhibit the acylation of cholesterol by oleic acid by measuring the amount of radiolabeled cholesterol oleate formed from radiolabeled oleic acid in a tissue preparation containing rat liver microsomes.
row,IC50 [µM],SMILES
1,34,"CC(C)c1cccc(C(C)C)c1OS(=O)(=O)NC(=O)[C@@H]1C[C@H]1c1ccccc1 (relative stereo) [Example 15, sulfamic acid trans-[(2-phenylcyclopropyl)carbonyl]-2,6-bis(1-methylethyl)phenyl ester]"
2,> 5,"CCCCCCCCCC(=O)NS(=O)(=O)Oc1c(C(C)C)cccc1C(C)C [Example 10, sulfamic acid (decanoyl)-2,6-bis(1-methylethyl)phenyl ester]"
